Earlier results on 2 molecules are cited in US11325978B2, “Compositions and methods for treating beta-globinopathies” (priority 2018, dated 2022).

The series deals with RIOK3. As to conditions: collection of 72 inhibitors against 456 human kinases (Davis et al. 2011).

As for `CNC(=O)c1ccccc1Sc1ccc2c(/C=C/c3ccccn3)n[nH]c2c1` [axitinib, Axitinib], the “inhibition of RIOK3 kinase activity” value is listed as “inhibit RIOK3 kinase activity”.
Regarding `CO[C@@H]1[C@H](N(C)C(=O)c2ccccc2)C[C@H]2O[C@]1(C)n1c3ccccc3c3c4c(c5c6ccccc6n2c5c31)C(=O)NC4` [midostaurin, Midostaurin], the “inhibition of RIOK3 kinase activity” value is given as “inhibit RIOK3 kinase activity”.
